For at least one entry, the source does not settle the construct or the ends of the probe. The comparison behind a weaker result is the experiment's own reference, which may not be listed here. For some assays here: Tags and fusion partners may be left off the protein sequences shown. For some assays here: Where cells or extracts were used, other partners may take part. For some assays here: At least one verdict rests on a figure or table, not on a statement of the authors.
Experiments:
Experiment in all cases: pull-down competition + HTS
FOXA1 = molecular target: T1, FOXA1 (UniProt P55317); details: 10 mM HEPES (pH 7.5), 140 mM KCl, 25 mM NaCl, 1 mM MgCl2, 0.1 mM CaCl2, 0.001% IGEPAL, 100 nM yeast tRNA, 50 nM total aptamers, 37 C, 30 min; protein in a lysate after overexpression; protein details: V5
T1 sequence (looked up, limits assumed): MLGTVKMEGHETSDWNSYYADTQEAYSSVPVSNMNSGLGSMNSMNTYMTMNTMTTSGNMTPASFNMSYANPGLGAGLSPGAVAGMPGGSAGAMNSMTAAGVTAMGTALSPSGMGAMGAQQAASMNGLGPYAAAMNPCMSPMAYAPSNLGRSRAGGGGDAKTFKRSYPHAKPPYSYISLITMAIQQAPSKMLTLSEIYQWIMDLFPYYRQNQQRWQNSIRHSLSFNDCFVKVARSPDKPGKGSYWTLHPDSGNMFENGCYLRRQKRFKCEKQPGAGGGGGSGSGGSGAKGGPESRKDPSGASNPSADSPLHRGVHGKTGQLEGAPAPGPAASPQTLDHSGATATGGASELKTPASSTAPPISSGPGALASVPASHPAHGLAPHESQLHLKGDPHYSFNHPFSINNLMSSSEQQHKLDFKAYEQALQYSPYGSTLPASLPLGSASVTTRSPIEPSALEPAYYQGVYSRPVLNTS

By UniProt entry, the sequences of proteins in these tests, tags left out. Where a name states a change or a piece, a line headed by the entry shows the natural chain unless it says otherwise.
UniProt O43524: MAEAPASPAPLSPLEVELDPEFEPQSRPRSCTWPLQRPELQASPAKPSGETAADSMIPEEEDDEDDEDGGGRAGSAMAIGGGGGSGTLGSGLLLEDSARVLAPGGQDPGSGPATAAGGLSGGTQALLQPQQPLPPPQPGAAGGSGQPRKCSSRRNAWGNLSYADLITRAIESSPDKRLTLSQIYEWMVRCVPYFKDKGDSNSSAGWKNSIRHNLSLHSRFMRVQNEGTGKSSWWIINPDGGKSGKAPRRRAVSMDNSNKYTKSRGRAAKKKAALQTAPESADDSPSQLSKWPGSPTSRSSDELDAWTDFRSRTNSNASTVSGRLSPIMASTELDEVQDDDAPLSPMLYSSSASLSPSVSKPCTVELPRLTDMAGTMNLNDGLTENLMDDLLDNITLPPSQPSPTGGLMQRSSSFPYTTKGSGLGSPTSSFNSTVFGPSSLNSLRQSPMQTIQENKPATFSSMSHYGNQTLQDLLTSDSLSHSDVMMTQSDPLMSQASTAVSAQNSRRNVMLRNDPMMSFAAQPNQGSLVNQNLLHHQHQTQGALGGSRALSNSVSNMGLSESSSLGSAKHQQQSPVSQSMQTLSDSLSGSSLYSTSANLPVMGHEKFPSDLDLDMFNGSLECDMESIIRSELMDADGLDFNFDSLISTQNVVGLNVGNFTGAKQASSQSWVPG

FOXO3A = FOXO3A (UniProt O43524); details: 10 mM HEPES (pH 7.5), 140 mM KCl, 25 mM NaCl, 1 mM MgCl2, 0.1 mM CaCl2, 0.001% IGEPAL, 100 nM yeast tRNA, 50 nM total aptamers, 37 C, 30 min; protein in a lysate after overexpression; protein details: V5
FOXL2 without C-ter = molecular target: T2, FOXL2 without C-ter (UniProt P58012); details: 10 mM HEPES (pH 7.5), 140 mM KCl, 25 mM NaCl, 1 mM MgCl2, 0.1 mM CaCl2, 0.001% IGEPAL, 100 nM yeast tRNA, 50 nM total aptamers, 37 C, 30 min; protein in a lysate after overexpression; protein details: V5
T2 sequence (looked up, limits assumed): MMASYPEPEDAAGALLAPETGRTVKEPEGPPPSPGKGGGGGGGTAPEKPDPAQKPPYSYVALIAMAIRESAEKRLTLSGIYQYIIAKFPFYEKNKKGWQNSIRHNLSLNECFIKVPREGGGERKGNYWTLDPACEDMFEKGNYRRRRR

FOXL2 FHD alone = molecular target: T3, FOXL2 FHD alone (UniProt P58012); details: 10 mM HEPES (pH 7.5), 140 mM KCl, 25 mM NaCl, 1 mM MgCl2, 0.1 mM CaCl2, 0.001% IGEPAL, 100 nM yeast tRNA, 50 nM total aptamers, 37 C, 30 min; protein in a lysate after overexpression; protein details: V5
T3 sequence (looked up, limits assumed): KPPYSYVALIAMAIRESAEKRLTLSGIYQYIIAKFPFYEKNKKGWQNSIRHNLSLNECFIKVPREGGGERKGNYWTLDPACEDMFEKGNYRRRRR

FOXL2 without N-ter = molecular target: T4, FOXL2 without N-ter (UniProt P58012); details: 10 mM HEPES (pH 7.5), 140 mM KCl, 25 mM NaCl, 1 mM MgCl2, 0.1 mM CaCl2, 0.001% IGEPAL, 100 nM yeast tRNA, 50 nM total aptamers, 37 C, 30 min; protein in a lysate after overexpression; protein details: V5
T4 sequence (looked up, limits assumed): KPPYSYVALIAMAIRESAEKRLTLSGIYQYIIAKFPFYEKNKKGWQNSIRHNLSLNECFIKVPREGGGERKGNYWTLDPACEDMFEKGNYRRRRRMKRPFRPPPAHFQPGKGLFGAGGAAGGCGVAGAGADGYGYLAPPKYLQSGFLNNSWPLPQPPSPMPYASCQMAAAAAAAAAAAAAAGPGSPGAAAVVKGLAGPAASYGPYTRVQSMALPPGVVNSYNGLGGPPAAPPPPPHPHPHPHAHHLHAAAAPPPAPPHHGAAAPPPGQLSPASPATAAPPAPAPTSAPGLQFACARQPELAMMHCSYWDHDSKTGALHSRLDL

FOXL2 wt (V5, HeLa) = molecular target: T5, FOXL2 wt (V5, HeLa) (UniProt P58012); details: 10 mM HEPES (pH 7.5), 140 mM KCl, 25 mM NaCl, 1 mM MgCl2, 0.1 mM CaCl2, 0.001% IGEPAL, 100 nM yeast tRNA, 50 nM total aptamers, 37 C, 30 min; protein in a lysate after overexpression; residues 1-376; protein details: V5
T5 sequence (looked up): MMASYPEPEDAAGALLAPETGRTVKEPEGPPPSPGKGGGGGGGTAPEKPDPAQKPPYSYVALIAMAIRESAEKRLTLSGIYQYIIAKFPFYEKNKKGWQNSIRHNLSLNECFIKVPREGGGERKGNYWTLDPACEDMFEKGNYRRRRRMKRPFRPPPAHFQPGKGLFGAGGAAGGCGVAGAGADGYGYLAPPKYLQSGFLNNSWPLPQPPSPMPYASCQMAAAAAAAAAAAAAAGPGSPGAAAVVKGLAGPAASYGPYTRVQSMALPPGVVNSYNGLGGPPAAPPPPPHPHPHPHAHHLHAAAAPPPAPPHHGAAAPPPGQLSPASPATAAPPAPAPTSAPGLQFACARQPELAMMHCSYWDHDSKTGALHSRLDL

FOXL2 wt (recombinant) = molecular target: T6, FOXL2 wt (recombinant) (UniProt P58012); details: 140 mM LiCl, no K+/Na+; 10 mM HEPES (pH 7.5), 140 mM KCl, 25 mM NaCl, 1 mM MgCl2, 0.1 mM CaCl2, 0.001% IGEPAL, 100 nM yeast tRNA, 50 nM total aptamers, 37 C, 30 min; recombinant protein; residues 1-376; protein details: His-SUMO tag cleaved
T6 sequence (looked up): T5 sequence (looked up)

Row | Sequence | binding result (FOXA1) | binding result (FOXO3A) | binding result (FOXL2 without C-ter) | binding result (FOXL2 FHD alone) | binding result (FOXL2 without N-ter) | binding result (FOXL2 wt (V5, HeLa)) | binding result (FOXL2 wt (recombinant))
1 | AUCUGCGACUGGCUGGAGGUGGACGGAUGGCUGGAGGCGAAAUUGGCUUA [RF004 RNA] | binds | binds | binds | binds | binds | binds | 
2 | CGUCAUUUGGUGGAUGGCGGAAGGAGGCGGAGGACGGGAAAUUCUGGAAA [RF001 RNA] | binds | binds | binds | binds | binds | binds | binds more weakly
3 | GAGGUAUUAAGAGGCGGAGGCGGAAGGAUGGCGGAGGACCGACAGAGAAG [RF000 RNA] | binds | binds | binds | binds | binds | binds | binds more weakly
4 | GGGACACUCGCUGUUUUCGAAAUUACCCUUUAUGCGCGGGUAUUGAACCA [scr50 RNA] | binds more weakly | binds more weakly | binds more weakly | binds more weakly | binds more weakly | binds more weakly | 
5 | UCGGACUUUGGUGGUUGGAGGACGGAUGGACGGAGGUUUAUUAGGCUCGC [RF002 RNA] | binds | binds | binds | binds | binds | binds | 
